Results taken from US9702824B2, “pH sensors” (PROMEGA CORPORATION, priority 2012, dated 2017).

Test system: wild-type U2-OS cells
Experiment: pH sensor specificity, non-specific binding (Example 10)
Type: cell-based
Conditions: 2 uM for 15 minutes

“4-((1-(4-((2-(2-((6-chlorohexyl)oxy)ethoxy)ethyl)carbamoyl)phenyl)-3-oxo-6,9,12,15-tetraoxa-2-azaheptadecan-17-yl)) 3′,6′-bis(4-(4-sulfobutyl)piperazin-1-yl) rhodamine(5′,6′)carboxamide [PBI-4995]” was tested. Which non-specific binding did it give?
The non-specific binding was “no non-specific binding”.

For `O=C(NCCOCCOCCOCCOCCOCCOCCCCCCCl)c1ccc(C(=O)[O-])c(-c2c3ccc(=[N+]4CCN(CCCCS(=O)(=O)O)CC4)cc-3oc3cc(N4CCN(CCCCS(=O)(=O)O)CC4)ccc23)c1` [PBI-4479], which non-specific binding is on record?
Its non-specific binding is “no non-specific binding”.

For `O=C(NCCOCCOCCCCCCCl)c1cccc(CNC(=O)c2ccc(C(=O)[O-])c(-c3c4ccc(=[N+]5CCN(CCCCS(=O)(=O)O)CC5)cc-4oc4cc(N5CCN(CCCCS(=O)(=O)O)CC5)ccc34)c2)c1` [PBI-4958], which non-specific binding is on record?
The non-specific binding was “no non-specific binding”.

`O=C(NCCOCCOCCCCCCCl)c1ccc(CNC(=O)c2ccc(C(=O)[O-])c(-c3c4ccc(=[N+]5CCN(CCCCS(=O)(=O)O)CC5)cc-4oc4cc(N5CCN(CCCCS(=O)(=O)O)CC5)ccc34)c2)cc1` [PBI-4959, 4-((4-((2-(2-((6-chlorohexyl)oxy)ethoxy)ethyl)carbamoyl)benzyl))-3′,6′-bis(4-(4-sulfobutyl)piperazin-1-yl) rhodamine(5′,6′) carboxamide] was tested. Which non-specific binding did it give?
Its non-specific binding is “no non-specific binding”.

Which non-specific binding does the source give for `O=C(CCOCCOCCOCCOCCNC(=O)c1ccc(C(=O)[O-])c(-c2c3ccc(=[N+]4CCN(CCCCS(=O)(=O)O)CC4)cc-3oc3cc(N4CCN(CCCCS(=O)(=O)O)CC4)ccc23)c1)NCc1cccc(C(=O)NCCOCCOCCCCCCCl)c1` [PBI-4994] here?
Its non-specific binding is “no non-specific binding”.

How did the non-specific binding turn out when `O=C(NCC1CCC(C(=O)NCCOCCOCCCCCCCl)CC1)c1ccc(C(=O)[O-])c(-c2c3ccc(=[N+]4CCN(CCCCS(=O)(=O)O)CC4)cc-3oc3cc(N4CCN(CCCCS(=O)(=O)O)CC4)ccc23)c1` (stereo not drawn) [PBI-5004, 4-(((4-((2-(2-((6-chlorohexyl)oxy)ethoxy)ethyl)carbamoyl)cyclohexyl)methyl)) 3′,6′-bis(4-(4-sulfobutyl)piperazin-1-yl) rhodamine(5′,6′) carboxamide] was run?
Its non-specific binding is “no non-specific binding”.
